These are yes or no findings as the source states them, for the method shown. Binding seen in cells or lysates may run through a third protein. A yes stands for co-enrichment or nearness to the bait. Other partners may have been found. Tags and fused reporters may be left off the sequences shown.
Target: T1, flag-tagged SMYD4 (SMYD4^flag), wild-type human, overexpressed in HL-1 cells (human) (UniProt Q8IYR2)
T1 sequence: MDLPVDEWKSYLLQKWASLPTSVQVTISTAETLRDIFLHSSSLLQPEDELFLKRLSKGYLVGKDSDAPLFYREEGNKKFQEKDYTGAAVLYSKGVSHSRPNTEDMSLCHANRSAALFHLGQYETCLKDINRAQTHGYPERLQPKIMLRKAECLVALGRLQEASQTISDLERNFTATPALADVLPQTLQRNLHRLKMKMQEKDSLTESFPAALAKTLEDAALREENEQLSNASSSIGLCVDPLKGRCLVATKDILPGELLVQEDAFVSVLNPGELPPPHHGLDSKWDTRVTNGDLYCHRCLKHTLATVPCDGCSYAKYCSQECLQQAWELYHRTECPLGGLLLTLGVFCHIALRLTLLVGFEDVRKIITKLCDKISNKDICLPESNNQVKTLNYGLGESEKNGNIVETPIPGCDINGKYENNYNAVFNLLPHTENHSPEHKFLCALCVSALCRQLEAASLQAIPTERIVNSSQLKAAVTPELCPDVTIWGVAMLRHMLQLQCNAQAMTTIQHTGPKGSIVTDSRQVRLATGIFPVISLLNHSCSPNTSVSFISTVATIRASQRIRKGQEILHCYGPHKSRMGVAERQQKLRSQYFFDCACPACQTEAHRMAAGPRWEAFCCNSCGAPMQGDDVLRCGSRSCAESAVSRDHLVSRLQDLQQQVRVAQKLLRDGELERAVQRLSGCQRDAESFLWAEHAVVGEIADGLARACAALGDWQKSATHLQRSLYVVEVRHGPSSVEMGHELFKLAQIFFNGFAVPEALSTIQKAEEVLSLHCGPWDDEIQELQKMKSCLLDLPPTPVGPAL
Experiment: affinity purification with mass spectrometry; SMYD4^flag overexpressed in HL-1 cells, 48 h after transfection; lysate in RIPA with 1 mM PMSF and protease inhibitors; immunoprecipitation with anti-Flag affinity gel, SDS-PAGE, silver staining, mass spectrometry

Amino acid sequences for entries named in this document (tags omitted).
UniProt O09106: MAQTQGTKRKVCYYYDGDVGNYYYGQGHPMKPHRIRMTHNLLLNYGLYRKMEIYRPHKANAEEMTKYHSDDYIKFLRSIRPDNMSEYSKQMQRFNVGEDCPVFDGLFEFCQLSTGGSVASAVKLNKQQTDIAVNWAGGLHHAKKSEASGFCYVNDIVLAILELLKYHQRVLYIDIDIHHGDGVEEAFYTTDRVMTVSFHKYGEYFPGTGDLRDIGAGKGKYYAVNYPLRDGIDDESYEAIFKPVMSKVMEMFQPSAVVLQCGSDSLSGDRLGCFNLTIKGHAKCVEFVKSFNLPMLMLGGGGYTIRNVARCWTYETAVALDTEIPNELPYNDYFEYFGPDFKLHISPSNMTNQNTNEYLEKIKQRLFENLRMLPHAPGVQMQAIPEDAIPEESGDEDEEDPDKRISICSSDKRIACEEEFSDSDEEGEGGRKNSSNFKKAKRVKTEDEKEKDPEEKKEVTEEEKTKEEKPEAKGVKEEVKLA

binding: binds
Substance: histone deacetylase 1 (HDAC1), in HL-1 cells (from UniProt O09106 1-482) (enzyme)
